Laboratory results published in patent US6645745B1, “Identification of a new member of the cytochrome P450 3A (CYP3A) gene family: CYP3AX” (Epidauros Biotechnologie AG, priority 2000, dated 2003).
At least one structure is not confirmed: it was looked up by name or label, or the drawing left a doubt.

System: GADPH
Experiment: Expression of house-keeping gene GADPH in primary human hepatocytes (semiquantitative RT-PCR)
Format: cell-based
Settings: 10 μM rifampicin for 48 h, FIG. 6

CO[C@H]1/C=C/O[C@@]2(C)Oc3c(C)c(O)c4c(O)c(c(/C=N/N5CCN(C)CC5)c(O)c4c3C2=O)NC(=O)/C(C)=C\C=C\[C@H](C)[C@H](O)[C@@H](C)[C@@H](O)[C@@H](C)[C@H](OC(C)=O)[C@@H]1C [rifampicin]
GADPH expression (induction): did not
